The text below walks through data of article doi:10.1101/2023.10.06.561273, “Bacterial cell surface nanoenvironment requires a specialized chaperone to activate a peptidoglycan biosynthetic enzyme” (bioRxiv, 2023).

Amino acid sequences for entries named in this document (tags omitted). A change or cut given only in a name is not applied to a line headed by its entry.
UniProt P27643: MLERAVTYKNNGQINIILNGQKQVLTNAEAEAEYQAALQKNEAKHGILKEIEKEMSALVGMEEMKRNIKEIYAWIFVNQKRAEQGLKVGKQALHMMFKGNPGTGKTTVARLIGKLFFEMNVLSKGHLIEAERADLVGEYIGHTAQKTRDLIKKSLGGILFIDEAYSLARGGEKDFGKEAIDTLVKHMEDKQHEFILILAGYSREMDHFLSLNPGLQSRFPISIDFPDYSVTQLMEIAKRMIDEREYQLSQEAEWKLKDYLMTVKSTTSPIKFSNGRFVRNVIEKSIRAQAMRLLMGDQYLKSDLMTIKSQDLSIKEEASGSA

For the assay, the target named is SpoVK^B*-FLAG variant in which amino acids 2-5 were deleted (SpoVK^Δ2−6-FLAG) (B. subtilis) (UniProt P27643). Description: co-IP; anti-FLAG magnetic beads on extracts of B. subtilis 4 h after induction of sporulation (cells with SpoVID, or ΔspoVID cells for MurG); binding buffer 50 mM Tris-HCl pH 7.5, 150 mM NaCl, 7.5% glycerol, 0.2% Triton-X-100, 4 °C, 1 h; elution with 100 mM glycine pH 2.7; fractions immunoblotted.

No constants are given. Whether binding was seen depends on the method and setting. In cells and extracts the contact can be indirect. A result given as binding can be weak or reduced; the word gives no strength.

B1: SpoVID (protein, UniProt P37963 1-575)
chain: MPQNHRLQFSVEESICFQKGQEVSELLSISLDPDIRVQEVNDYVSIIGSLELTGEYNIDQNKHTEEIYTDKRFVEQVRKREDGSAELTHCFPVDITIPKNKVSHLQDVFVFIDAFDYQLTDSRILTIQADLAIEGLLDDTQDKEPEIPLYEAPAAFREEELSEPPAHSVVEEPGASSAEEAVLQHEPPAEPPELFISKAGLREELETEKAESEPPESVASEPEAREDVKEEEESEELAVPETEVRAESETEESEPEPDPSEIEIQEIVKAKKETAEPAAAIADVREEADSPAETELREHVGAEESPALEAELHSETVIAKEKEETTVSPNHEYALRQEAQNEEAAQSDQADPALCQEEAEPDEALESVSEAALSIEDSRETASAVYMENDNADLHFHFNQKTSSEEASQEELPEPAYRTFLPEQEEEDSFYSAPKLLEEEEQEEESFEIEVRKTPSAEEPKEETPFQSFQLPESSETERKETDAVPRVAPAAETKEPQTKESDNSLYLTKLFTKEADEFSRMKICIVQQEDTIERLCERYEITSQQLIRMNSLALDDELKAGQILYIPQYKNSHA
Consider B1, for which the binding result was “binds”.
